From US20170189504A1, “NOVEL PEPTIDES AND COMBINATION OF PEPTIDES FOR USE IN IMMUNOTHERAPY AGAINST VARIOUS CANCERS” (immatics biotechnologies GmbH, priority 2015, published 2017)
For part of these data: Expression values are those of the mRNA of the gene that encodes the peptide; a gene is named only where it was looked up.

What was measured:
[1] = test system: source genes (mRNA); assay: Gene and exon expression of source genes, TCGA tumor samples compared with normal tissue samples (Lonsdale, 2013) (Table 17); design: species or system human; conditions: for Over-expression category of source gene (target coverage), BLCA: BLCA = Bladder urothelial carcinoma (N = 408); for Over-expression category of source gene (target coverage), BRCA: BRCA = Breast cancer (N = 1104), tumors more than 2-fold above highest 75% percentile of normal tissues; for Over-expression category of source gene (target coverage), CHOL: CHOL = Cholangiocarcinoma (N = 36); for Over-expression category of source gene (target coverage), COAD: COAD = Colon and rectal adenocarcinoma (N = 462); for Over-expression category of source gene (target coverage), DLBC: DLBC = Lymphoid neoplasm diffuse large B-cell lymphoma (N = 48); for Over-expression category of source gene (target coverage), ESCA: ESCA = Esophageal cancer (N = 185); for Over-expression category of source gene (target coverage), GBM: GBM = Glioblastoma multiforme (N = 169); for Over-expression category of source gene (target coverage), LAML: LAML = Acute Myeloid Leukemia (N = 173); for Over-expression category of source gene (target coverage), LIHC: LIHC = Liver hepatocellular carcinoma (N = 374); for Over-expression category of source gene (target coverage), LUAD: LUAD = Lung adenocarcinoma (N = 517); for Over-expression category of source gene (target coverage), LUSC: LUSC = Lung squamous cell carcinoma (N = 503); for Over-expression category of source gene (target coverage), OV: OV = Ovarian serous cystadenocarcinoma (N = 309); for Over-expression category of source gene (target coverage), PAAD: PAAD = Pancreatic ductal adenocarcinoma (N = 179); for Over-expression category of source gene (target coverage), READ: READ = Colon and rectal adenocarcinoma (N = 167); for Over-expression category of source gene (target coverage), SKCM: SKCM = Skin cutaneous melanoma (N = 473); for Over-expression category of source gene (target coverage), STAD: STAD = Stomach adenocarcinoma (N = 415); for Over-expression category of source gene (target coverage), UCEC: UCEC = Uterine corpus endometrial carcinoma (N = 546)
[2] = test system: source genes (mRNA); assay: Expression profiling of source genes by in-house RNASeq of tumor and normal tissues (Table 18, FIG. 2); design: species or system human; key: very highly over-expressed in tumors compared to a panel of normal tissues (+++); highly over-expressed in tumors compared to a panel of normal tissues (++); over-expressed in tumors compared to a panel of normal tissues (+); conditions: source gene of peptide; for Expression score AML: acute myeloid leukemia (N = 11) vs panel of normal tissues; for Expression score OSCAR: esophageal cancer incl. gastric-esophageal junction (N = 11) vs panel of normal tissues; for Expression score NHL: non-Hodgkin lymphoma (N = 10) vs panel of normal tissues; for Expression score NSCLC: non-small cell lung cancer (N = 11) vs panel of normal tissues; for Expression score OC: ovarian cancer (N = 12) vs panel of normal tissues; for Expression score SCLC: small cell lung cancer (N = 10) vs panel of normal tissues; for Expression score UBC: urinary bladder cancer (N = 10) vs panel of normal tissues
[3] = test system: HLA-A*02; assay: Identification and relative LC-MS quantitation of HLA-A*02-presented tumor-associated peptides on tissue samples (presentation profiles, Tables 13A, 13B, 15, FIG. 1); design: species or system human; key to Presentation score NHL / Presentation score CLL / Presentation score BRCA / Presentation score AML / Presentation score GB / Presentation score NSCLC / Presentation score GBC_CCC / Presentation score UEC / Presentation score MEL / Presentation score OSCAR / Presentation score GC / Presentation score UBC / Presentation score OC / Presentation score RCC / Presentation score CRC / Presentation score PCA / Presentation score HCC / Presentation score PC / Presentation score SCLC: specifically presented on tumors (++++); very highly over-presented on tumors compared to a panel of normal tissues (+++); highly over-presented on tumors compared to a panel of normal tissues (++); over-presented on tumors compared to a panel of normal tissues (+); conditions: for Peptide Presentation on cancer entities: HLA-A*02-binding tumor-associated peptides
[4] = Table 13A, cancer entities on which the peptide was found presented

| Substance | Over-expression category of source gene (target coverage), BLCA ([1]; same cutoff) | Over-expression category of source gene (target coverage), BRCA [1] | Over-expression category of source gene (target coverage), CHOL ([1]; same cutoff) | Over-expression category of source gene (target coverage), COAD ([1]; same cutoff) | Over-expression category of source gene (target coverage), DLBC ([1]; same cutoff) | Over-expression category of source gene (target coverage), ESCA ([1]; same cutoff) | Over-expression category of source gene (target coverage), GBM ([1]; same cutoff) | Over-expression category of source gene (target coverage), LAML ([1]; same cutoff) | Over-expression category of source gene (target coverage), LIHC ([1]; same cutoff) | Over-expression category of source gene (target coverage), LUAD ([1]; same cutoff) | Over-expression category of source gene (target coverage), LUSC ([1]; same cutoff) | Over-expression category of source gene (target coverage), OV ([1]; same cutoff) | Over-expression category of source gene (target coverage), PAAD ([1]; same cutoff) | Over-expression category of source gene (target coverage), READ ([1]; same cutoff) | Over-expression category of source gene (target coverage), SKCM ([1]; same cutoff) | Over-expression category of source gene (target coverage), STAD ([1]; same cutoff) | Over-expression category of source gene (target coverage), UCEC ([1]; same cutoff) | Expression score AML [2] | Expression score OSCAR [2] | Expression score NHL [2] | also measured |
| --- | --- | --- | --- | --- | --- | --- | --- | --- | --- | --- | --- | --- | --- | --- | --- | --- | --- | --- | --- | --- | --- |
| 232: peptide found in GART (gene looked up) (KIFPAALQLV; listed as Homo sapiens) [compound 232] | A (>=50% of tumors above the cutoff) | B (>= 20% of tumors above the cutoff, but <50%) | B (>= 20% of tumors above the cutoff, but <50%) | A (>=50% of tumors above the cutoff) | A (>=50% of tumors above the cutoff) | B (>= 20% of tumors above the cutoff, but <50%) | C (>=5% of tumors above the cutoff, but <20%) | C (>=5% of tumors above the cutoff, but <20%) | C (>=5% of tumors above the cutoff, but <20%) | C (>=5% of tumors above the cutoff, but <20%) | B (>= 20% of tumors above the cutoff, but <50%) | B (>= 20% of tumors above the cutoff, but <50%) | C (>=5% of tumors above the cutoff, but <20%) | A (>=50% of tumors above the cutoff) | B (>= 20% of tumors above the cutoff, but <50%) | B (>= 20% of tumors above the cutoff, but <50%) | B (>= 20% of tumors above the cutoff, but <50%) | + | + | ++ | Expression score CRC ([2]; colorectal cancer (N = 20) vs panel of normal tissues): +; Expression score GBC_CCC ([2]; gallbladder adenocarcinoma and cholangiocarcinoma (N = 3) vs panel of normal tissues): +; Expression score NSCLC [2]: +; Expression score OC [2]: +; Expression score SCLC [2]: +; Expression score UBC [2]: +; Expression score UEC ([2]; uterine cancer (N = 10) vs panel of normal tissues): +; Presentation score CRC ([3]; HLA-A*02 peptides, colorectal cancer (N = 28) vs panel of normal tissues (N = 262)): +; Presentation score HCC ([3]; HLA-A*02 peptides, hepatocellular carcinoma (N = 16) vs panel of normal tissues (N = 262)): ++; Presentation score SCLC ([3]; HLA-A*02 peptides, small cell lung cancer (N = 19) vs panel of normal tissues (N = 262)): ++; Peptide Presentation on cancer entities [3, 4]: NSCLC, HCC, CLL, OC, SCLC, UBC, UEC, GBC_CCC, CRC, NHL |
| 235: peptide found in MSH6 (gene looked up) (KIIDFLSAL; listed as Homo sapiens) [compound 235] | A (>=50% of tumors above the cutoff) | A (>=50% of tumors above the cutoff) | A (>=50% of tumors above the cutoff) | A (>=50% of tumors above the cutoff) | A (>=50% of tumors above the cutoff) | A (>=50% of tumors above the cutoff) | A (>=50% of tumors above the cutoff) | A (>=50% of tumors above the cutoff) | A (>=50% of tumors above the cutoff) | A (>=50% of tumors above the cutoff) | A (>=50% of tumors above the cutoff) | A (>=50% of tumors above the cutoff) | B (>= 20% of tumors above the cutoff, but <50%) | A (>=50% of tumors above the cutoff) | A (>=50% of tumors above the cutoff) | B (>= 20% of tumors above the cutoff, but <50%) | A (>=50% of tumors above the cutoff) | + | + | + | Over-expression category of source gene (target coverage), KIRC ([1]; KIRC = Clear cell kidney carcinoma (N = 534), same cutoff): A (>=50% of tumors above the cutoff); Over-expression category of source gene (target coverage), KIRP ([1]; KIRP = Papillary kidney carcinoma (N = 291), same cutoff): B (>= 20% of tumors above the cutoff, but <50%); Over-expression category of source gene (target coverage), LGG ([1]; LGG = Lower grade glioma (N = 534), same cutoff): B (>= 20% of tumors above the cutoff, but <50%); Over-expression category of source gene (target coverage), PRAD ([1]; PRAD = Prostate adenocarcinoma (N = 498), same cutoff): A (>=50% of tumors above the cutoff); Expression score BRCA ([2]; BRCA tumors vs panel of normal tissues): +; Expression score NSCLC [2]: +; Expression score OC [2]: ++; Expression score SCLC [2]: ++; Expression score UBC [2]: +; Presentation score AML ([3]; HLA-A*02 peptides, acute myeloid leukemia (N = 18) vs panel of normal tissues (N = 262)): ++++; Presentation score NHL ([3]; HLA-A*02 peptides, non-Hodgkin lymphoma (N = 18) vs panel of normal tissues (N = 262)): ++++; Presentation score OC ([3]; HLA-A*02 peptides, ovarian cancer (N = 20) vs panel of normal tissues (N = 262)): ++++; Presentation score UEC ([3]; HLA-A*02 peptides, uterine cancer (N = 15) vs panel of normal tissues (N = 262)): ++++; Peptide Presentation on cancer entities [3, 4]: OC, UEC, AML, NHL; Peptide Presentation on cancer entities ([3]; Table 13B, presentation on additional cancer entities): NSCLC, HCC, MEL, HNSCC |
